# Legend:
# [1] = tested on: absolute lymphocyte count (ALC); assay: Phase 1 clinical trial, repeated administration: pharmacodynamics by hematological test; format: in vivo, healthy adult males
# Experimental: (§1) A randomized, double-blind, placebo-controlled, step-escalation, single- and multiple-dose phase 1 clinical trial was conducted to evaluate the safety, tolerability, and pharmacokinetic/pharmacodynamic characteristics of a compound of Chemical Formula 1 (NXC736) after oral administration to healthy adult males.
# The subjects fasted for at least 10 hours before the first administration. Afterwards, the clinical trial drug was administered orally twice a day for 13 days and once on day 14 in a fasting state at around 9:00 AM and 9:00 PM. The administration was performed twice a day for approximately 14 days, and the subjects were discharged on day 21 from the first administration and observed through outpatient visits until day 36. Blood was collected once before administration and at regular intervals after administration, and hematological tests were performed.
# [2] = tested on: absolute lymphocyte count (ALC); assay: Phase 1 clinical trial, single administration: pharmacodynamics by hematological test; format: in vivo, healthy adult males
# Experimental: as §1
# The subjects were administered a single oral dose of the clinical trial drug on an empty stomach at around 9:00 AM on the day of administration after fasting for at least 10 hours. In the single-administration trial, the subjects were administered the drug and hospitalized for 8 days. After discharge, they were observed through outpatient visits until day 21. Blood was collected once before administration and at regular intervals after administration, and hematological tests were performed.
structure (smiles),measurement,setting,value
CCCCCCCCCCn1cc(CCC(N)(CO)CO)nn1 [NXC736],time over which ALC steadily decreased after administration,[1]; repeated administration,up to 6 hours
same,time for the decrease in ALC to reach the maximum,[1]; repeated administrations,≤ 14 days
same,time of ALC recovery to the pre-administration level after discontinuation of administration,[1]; repeated administrations,≤ 24 h
same,ALC recovery to the pre-administration level,[2]; after single administration,within the same day
same,time at which ALC decreased to the maximum,[2]; after single administration,about 6 hours
same,time of ALC recovery to the pre-administration level,[2]; after single administration,≤ 1 days
same,time over which ALC steadily decreased after administration,[2]; single administration,up to 6 hours
